This is a selection; strong and weak results do not stand in their true shares.
Compound: COC(=O)C#Cc1ccccc1 [methyl 3-phenylpropiolate]
Test: log2 ratio of iodoacetamide-alkyne labeling of the cysteine site, DMSO over compound (competition); higher = stronger covalent engagement of the cysteine by the compound, active = 1 or more
Settings: 500 µM; treatment time 1 h; system: HEK293T cell lysate
Method in brief: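 For each cysteine, the log2 competition ratio is mean control-channel reporter intensity over mean compound-channel reporter intensity. HEK293T lysate (2 mg/mL) was exposed to vehicle or electrophile (500 µM, 1 h, ambient temperature), labelled with iodoacetamide alkyne (1 h), clicked to sCIP-TMT reagents, digested overnight with trypsin at 37 °C, streptavidin-enriched and analysed by Orbitrap Eclipse LC-MS/MS with FAIMS and FragPipe. Cysteines quantified in only one of three replicates, each with duplicate channels, were excluded.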

Amino acid sequences for entries named in this document (tags omitted). A change or cut given only in a name is not applied to a line headed by its entry.
UniProt Q9NPA3, whole entry: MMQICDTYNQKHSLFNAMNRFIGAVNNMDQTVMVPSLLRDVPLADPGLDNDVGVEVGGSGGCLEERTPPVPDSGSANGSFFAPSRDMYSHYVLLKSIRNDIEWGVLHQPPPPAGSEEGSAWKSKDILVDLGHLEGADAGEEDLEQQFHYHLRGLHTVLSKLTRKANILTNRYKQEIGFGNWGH
UniProt Q9NRL2: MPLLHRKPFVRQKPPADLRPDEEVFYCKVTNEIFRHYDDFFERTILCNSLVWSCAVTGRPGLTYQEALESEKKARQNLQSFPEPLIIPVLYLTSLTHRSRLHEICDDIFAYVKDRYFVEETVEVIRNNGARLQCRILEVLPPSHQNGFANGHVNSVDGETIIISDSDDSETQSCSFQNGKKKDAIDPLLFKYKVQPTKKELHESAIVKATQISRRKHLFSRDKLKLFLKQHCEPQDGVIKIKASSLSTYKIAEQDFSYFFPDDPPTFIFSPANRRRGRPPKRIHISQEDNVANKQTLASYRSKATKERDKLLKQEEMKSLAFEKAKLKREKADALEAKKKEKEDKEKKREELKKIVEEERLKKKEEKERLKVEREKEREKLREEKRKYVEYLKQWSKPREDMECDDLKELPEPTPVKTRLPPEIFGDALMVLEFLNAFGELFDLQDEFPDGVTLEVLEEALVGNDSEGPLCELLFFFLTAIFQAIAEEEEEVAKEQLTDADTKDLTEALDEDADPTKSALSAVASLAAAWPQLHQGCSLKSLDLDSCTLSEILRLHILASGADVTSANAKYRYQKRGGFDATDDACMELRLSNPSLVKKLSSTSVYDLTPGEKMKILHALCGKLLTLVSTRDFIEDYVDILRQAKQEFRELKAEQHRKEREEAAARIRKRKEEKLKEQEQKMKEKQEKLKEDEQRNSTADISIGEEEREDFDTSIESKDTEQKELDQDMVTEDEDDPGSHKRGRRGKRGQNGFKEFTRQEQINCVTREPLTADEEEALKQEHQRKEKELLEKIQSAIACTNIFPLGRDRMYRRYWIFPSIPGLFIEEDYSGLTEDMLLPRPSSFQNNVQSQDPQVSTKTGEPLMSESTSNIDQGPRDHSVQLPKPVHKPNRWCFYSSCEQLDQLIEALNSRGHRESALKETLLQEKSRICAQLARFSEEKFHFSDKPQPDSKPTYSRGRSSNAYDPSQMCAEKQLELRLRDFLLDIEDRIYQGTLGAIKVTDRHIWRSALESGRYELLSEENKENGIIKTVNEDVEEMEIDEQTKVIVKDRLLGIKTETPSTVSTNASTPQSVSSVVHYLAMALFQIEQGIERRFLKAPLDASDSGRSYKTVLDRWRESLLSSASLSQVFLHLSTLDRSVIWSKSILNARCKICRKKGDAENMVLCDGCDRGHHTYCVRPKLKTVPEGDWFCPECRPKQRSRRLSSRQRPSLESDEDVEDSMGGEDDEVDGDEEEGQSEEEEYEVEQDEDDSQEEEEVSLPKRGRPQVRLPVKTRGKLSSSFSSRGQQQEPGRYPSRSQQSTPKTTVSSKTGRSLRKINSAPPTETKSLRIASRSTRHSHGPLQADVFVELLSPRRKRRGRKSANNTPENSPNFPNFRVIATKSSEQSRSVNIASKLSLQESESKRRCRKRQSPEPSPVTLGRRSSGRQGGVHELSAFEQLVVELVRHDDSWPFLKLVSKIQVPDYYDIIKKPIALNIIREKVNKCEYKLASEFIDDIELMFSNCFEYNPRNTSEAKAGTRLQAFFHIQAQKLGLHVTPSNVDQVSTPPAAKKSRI
UniProt Q9H6S0: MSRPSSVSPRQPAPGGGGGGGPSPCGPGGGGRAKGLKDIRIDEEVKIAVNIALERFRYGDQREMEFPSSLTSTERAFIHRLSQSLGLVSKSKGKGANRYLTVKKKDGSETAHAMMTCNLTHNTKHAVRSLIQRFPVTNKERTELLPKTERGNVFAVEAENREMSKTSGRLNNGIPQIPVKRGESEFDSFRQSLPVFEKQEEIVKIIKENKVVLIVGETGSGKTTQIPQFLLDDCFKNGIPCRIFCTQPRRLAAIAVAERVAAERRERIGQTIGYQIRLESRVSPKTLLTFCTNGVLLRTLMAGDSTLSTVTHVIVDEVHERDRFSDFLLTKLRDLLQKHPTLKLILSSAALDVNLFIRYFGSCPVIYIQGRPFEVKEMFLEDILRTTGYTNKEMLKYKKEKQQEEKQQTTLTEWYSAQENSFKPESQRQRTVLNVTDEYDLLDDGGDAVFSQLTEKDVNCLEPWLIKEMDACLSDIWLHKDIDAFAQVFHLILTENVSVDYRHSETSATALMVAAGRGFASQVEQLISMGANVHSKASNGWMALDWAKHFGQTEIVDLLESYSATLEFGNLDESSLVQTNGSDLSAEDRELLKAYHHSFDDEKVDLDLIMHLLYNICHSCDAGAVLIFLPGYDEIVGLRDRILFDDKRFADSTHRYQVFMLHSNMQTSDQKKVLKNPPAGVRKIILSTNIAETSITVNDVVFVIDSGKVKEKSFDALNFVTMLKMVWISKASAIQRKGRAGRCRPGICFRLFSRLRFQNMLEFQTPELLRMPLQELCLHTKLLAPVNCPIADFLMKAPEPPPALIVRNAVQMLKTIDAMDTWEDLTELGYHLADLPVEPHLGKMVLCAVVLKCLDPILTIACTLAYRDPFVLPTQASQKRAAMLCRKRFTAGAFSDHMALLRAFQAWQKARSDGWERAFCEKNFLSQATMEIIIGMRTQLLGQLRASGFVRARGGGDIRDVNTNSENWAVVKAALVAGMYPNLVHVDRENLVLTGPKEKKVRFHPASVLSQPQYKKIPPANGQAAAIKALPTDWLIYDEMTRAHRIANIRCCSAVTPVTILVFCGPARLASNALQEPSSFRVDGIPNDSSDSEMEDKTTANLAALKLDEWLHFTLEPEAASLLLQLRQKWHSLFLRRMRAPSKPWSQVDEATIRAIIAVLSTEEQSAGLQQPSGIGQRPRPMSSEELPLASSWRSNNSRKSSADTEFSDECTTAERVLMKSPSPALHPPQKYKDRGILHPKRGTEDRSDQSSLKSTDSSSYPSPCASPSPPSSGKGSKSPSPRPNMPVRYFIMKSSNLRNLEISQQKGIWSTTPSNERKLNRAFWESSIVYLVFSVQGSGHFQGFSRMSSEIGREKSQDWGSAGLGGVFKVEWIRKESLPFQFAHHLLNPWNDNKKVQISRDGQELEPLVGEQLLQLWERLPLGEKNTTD
UniProt Q9NQW7: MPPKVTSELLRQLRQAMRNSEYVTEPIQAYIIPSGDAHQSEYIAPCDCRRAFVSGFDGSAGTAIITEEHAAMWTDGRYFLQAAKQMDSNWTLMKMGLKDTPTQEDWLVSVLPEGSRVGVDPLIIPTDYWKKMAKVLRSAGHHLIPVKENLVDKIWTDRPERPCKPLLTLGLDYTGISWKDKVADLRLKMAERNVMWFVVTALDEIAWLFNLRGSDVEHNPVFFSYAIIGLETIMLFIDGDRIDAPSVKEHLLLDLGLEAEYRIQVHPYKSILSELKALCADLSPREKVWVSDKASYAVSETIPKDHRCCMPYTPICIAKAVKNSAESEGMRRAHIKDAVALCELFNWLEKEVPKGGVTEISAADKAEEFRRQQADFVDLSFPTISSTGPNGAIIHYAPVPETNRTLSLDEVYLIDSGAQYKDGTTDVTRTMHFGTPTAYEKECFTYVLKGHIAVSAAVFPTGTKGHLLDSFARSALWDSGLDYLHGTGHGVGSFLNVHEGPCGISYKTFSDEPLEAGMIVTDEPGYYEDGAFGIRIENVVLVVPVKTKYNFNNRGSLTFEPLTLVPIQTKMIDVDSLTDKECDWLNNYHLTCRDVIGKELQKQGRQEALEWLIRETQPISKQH
UniProt Q9H6R7: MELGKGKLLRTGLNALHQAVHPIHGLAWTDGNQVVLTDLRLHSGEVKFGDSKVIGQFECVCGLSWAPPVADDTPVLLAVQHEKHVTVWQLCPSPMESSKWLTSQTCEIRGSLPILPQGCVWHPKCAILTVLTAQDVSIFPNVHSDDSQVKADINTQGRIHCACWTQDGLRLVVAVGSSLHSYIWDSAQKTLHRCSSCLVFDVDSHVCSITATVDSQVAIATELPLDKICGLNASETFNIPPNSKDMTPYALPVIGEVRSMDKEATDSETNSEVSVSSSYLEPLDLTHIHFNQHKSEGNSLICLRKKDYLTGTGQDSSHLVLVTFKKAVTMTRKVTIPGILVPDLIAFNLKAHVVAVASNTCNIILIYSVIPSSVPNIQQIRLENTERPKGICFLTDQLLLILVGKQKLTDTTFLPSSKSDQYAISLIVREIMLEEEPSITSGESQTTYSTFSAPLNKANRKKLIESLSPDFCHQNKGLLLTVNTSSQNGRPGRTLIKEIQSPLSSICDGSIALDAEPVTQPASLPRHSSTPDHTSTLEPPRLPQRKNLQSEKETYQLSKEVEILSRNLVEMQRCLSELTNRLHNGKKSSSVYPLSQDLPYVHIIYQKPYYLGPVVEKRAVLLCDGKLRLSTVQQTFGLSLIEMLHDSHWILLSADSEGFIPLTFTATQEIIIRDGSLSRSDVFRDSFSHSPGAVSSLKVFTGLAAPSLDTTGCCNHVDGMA
UniProt Q9NRZ9: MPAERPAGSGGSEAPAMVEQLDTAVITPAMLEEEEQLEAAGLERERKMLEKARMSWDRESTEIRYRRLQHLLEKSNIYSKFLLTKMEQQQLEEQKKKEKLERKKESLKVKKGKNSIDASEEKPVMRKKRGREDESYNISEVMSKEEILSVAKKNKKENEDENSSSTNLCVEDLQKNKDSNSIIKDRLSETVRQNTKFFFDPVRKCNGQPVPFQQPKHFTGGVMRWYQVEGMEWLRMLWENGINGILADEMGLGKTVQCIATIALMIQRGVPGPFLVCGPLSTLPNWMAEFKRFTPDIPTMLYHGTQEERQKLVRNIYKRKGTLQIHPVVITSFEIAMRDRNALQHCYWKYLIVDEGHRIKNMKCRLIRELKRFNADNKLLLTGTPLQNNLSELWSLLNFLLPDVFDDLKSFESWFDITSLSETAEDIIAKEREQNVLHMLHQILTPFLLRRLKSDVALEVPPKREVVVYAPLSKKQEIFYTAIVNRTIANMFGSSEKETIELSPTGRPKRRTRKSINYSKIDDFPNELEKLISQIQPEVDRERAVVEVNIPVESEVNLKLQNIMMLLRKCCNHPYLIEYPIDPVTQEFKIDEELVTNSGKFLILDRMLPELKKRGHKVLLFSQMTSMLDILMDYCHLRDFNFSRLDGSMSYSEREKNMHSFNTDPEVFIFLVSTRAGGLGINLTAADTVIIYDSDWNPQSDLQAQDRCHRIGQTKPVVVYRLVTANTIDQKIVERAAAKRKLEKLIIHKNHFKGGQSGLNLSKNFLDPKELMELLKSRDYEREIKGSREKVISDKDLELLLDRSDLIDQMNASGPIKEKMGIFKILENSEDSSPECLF
UniProt Q9H4A4: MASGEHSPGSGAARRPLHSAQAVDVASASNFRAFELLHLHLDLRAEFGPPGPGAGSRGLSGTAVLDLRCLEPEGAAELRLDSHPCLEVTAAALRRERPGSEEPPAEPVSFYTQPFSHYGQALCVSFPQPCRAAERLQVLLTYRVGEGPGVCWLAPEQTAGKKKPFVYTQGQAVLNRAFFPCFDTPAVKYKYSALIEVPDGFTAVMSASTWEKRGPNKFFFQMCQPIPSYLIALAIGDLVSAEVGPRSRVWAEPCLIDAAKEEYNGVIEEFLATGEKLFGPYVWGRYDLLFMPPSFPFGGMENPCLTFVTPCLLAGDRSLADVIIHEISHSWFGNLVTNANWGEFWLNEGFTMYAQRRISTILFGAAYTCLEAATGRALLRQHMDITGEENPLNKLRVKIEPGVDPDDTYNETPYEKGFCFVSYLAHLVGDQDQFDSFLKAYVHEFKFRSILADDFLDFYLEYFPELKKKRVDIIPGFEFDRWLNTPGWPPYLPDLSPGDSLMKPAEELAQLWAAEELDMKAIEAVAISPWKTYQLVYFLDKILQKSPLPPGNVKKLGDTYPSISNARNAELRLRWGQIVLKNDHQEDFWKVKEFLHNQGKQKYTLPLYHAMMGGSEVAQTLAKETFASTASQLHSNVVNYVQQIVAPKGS
UniProt Q9NR31: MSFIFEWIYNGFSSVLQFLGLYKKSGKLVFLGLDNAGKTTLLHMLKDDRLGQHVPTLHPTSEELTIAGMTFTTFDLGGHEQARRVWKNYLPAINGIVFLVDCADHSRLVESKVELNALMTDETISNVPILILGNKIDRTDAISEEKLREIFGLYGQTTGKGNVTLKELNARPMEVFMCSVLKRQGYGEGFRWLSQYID
UniProt Q9NR46: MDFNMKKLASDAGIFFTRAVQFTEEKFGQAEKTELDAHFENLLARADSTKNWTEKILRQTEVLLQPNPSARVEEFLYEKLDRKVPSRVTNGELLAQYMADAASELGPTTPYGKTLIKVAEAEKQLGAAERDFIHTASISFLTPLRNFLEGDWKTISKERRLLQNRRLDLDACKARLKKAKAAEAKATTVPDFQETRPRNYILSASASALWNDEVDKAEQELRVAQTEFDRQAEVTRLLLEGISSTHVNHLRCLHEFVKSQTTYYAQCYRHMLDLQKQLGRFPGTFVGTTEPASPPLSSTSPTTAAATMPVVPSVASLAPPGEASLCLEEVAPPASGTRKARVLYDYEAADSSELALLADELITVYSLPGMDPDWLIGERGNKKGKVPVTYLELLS

log2 ratio of iodoacetamide-alkyne labeling, inactive:
UniProt Q9NPA3_C62 0.293
BIRC6 C381 (UniProt Q9NR09) 0.225
RAVER2 C631 (UniProt Q9HCJ3) 0.475
CBX8 C261 (UniProt Q9HC52) 0.434
REEP4 C200 (UniProt Q9H6H4) 0.145
MLXIP C738 (UniProt Q9HAP2) -0.0833
WDR26 C656 (UniProt Q9H7D7) 0.137
BAZ1A C898 (UniProt Q9NRL2) 0.126
PNN C249 (UniProt Q9H307) 0.621
RAB18 C155 (UniProt Q9NP72) 0.211
XPO5 C1157 (UniProt Q9HAV4) 0.173
CDC42EP4 C313 (UniProt Q9H3Q1) 0.354
MBNL1 C53 (UniProt Q9NR56) 0.189
TUBB1 C12 (UniProt Q9H4B7) 0.756
DCP1A C149 (UniProt Q9NPI6) -0.171
YTHDC2 C1211 (UniProt Q9H6S0) 0.279
GRPEL1 C108 (UniProt Q9HAV7) 0.255
XPNPEP1 C342 (UniProt Q9NQW7) -0.0873
XPNPEP1 C309 (UniProt Q9NQW7) 0.143
MVB12B C267 (UniProt Q9H7P6) 0.00514
XPNPEP1 C502 (UniProt Q9NQW7) 0.215
ISG20L2 C220 (UniProt Q9H9L3) 0.104
UniProt Q9H6R7_C507 0.708
MDN1 C579 (UniProt Q9NU22) -0.0663
HELLS C836 (UniProt Q9NRZ9) 0.353
ZNF644 C1206 (UniProt Q9H582) 0.615
EPB41L5 C385 (UniProt Q9HCM4) 0.393
RNPEP C254 (UniProt Q9H4A4) -0.0735
XPO5 C941 (UniProt Q9HAV4) 0.0901
UPF2 C578 (UniProt Q9HAU5) 0.35
MOV10 C16 (UniProt Q9HCE1) 0.0189
SNX15 C192 (UniProt Q9NRS6) -0.395
UniProt Q9HBK9_C334 0.537
BAZ1A C547 (UniProt Q9NRL2) 0.396
SAR1A C102 (UniProt Q9NR31) -0.125
SH3GLB2 C172 (UniProt Q9NR46) 0.184
SFXN1 C190 (UniProt Q9H9B4) 0.345

3 successive records out of the list so far, quoted:
log2 ratio of iodoacetamide-alkyne labeling, inactive:
UniProt Q9H6R7_C507 0.708
MDN1 C579 (UniProt Q9NU22) -0.0663
HELLS C836 (UniProt Q9NRZ9) 0.353
